Paper PMC5454954, “BDNF Binds Its Pro-Peptide with High Affinity and the Common Val66Met Polymorphism Attenuates the Interaction” (International Journal of Molecular Sciences, 2017)
Numbering of substitutions follows the chain as printed. These are yes or no findings as the source states them, for the method shown. A result given as binding can be weak or reduced; the word gives no strength. For some assays here: In cells and extracts the contact can be indirect.

How the values were obtained:
[1] = biological target: T1, recombinant BDNF pro-peptide with the Met substitution at position 66 (Val66Met) (human) (UniProt P23560); assay: SPR; as a1, but HBS-EP adjusted to pH 6.5 with HCl; BDNF 30 nM (Figure 2c); both purified
T1 sequence: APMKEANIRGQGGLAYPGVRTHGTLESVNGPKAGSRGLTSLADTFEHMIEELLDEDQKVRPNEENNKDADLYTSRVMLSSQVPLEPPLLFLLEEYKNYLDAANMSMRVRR

[2] = biological target: T2, recombinant wild-type BDNF pro-peptide (Val at position 66) (human) (UniProt P23560); assay: as above
T2 sequence: T1 sequence with M48V

[3] = biological target: T1, recombinant BDNF pro-peptide with the Met substitution at position 66 (Val66Met) (human); assay: SPR; as a1, but HBS-EP adjusted to pH 7.0 with HCl; BDNF 30 nM (Figure 2c); both purified
[4] = biological target: T2, recombinant wild-type BDNF pro-peptide (Val at position 66) (human); assay: as above
[5] = biological target: T2, recombinant wild-type BDNF pro-peptide (Val at position 66) (human); assay: co-IP; BDNF and/or pro-peptide (100 ng/mL) incubated in a tube at 4 °C for 1 h in 10 mM HEPES pH 7.4, 150 mM NaCl, 3 mM EDTA, 0.005% NP-40; immunoprecipitated with rabbit proBDNF antiserum or monoclonal anti-BDNF mAb#9; Western blot; both purified

Measured: binding

brain-derived neurotrophic factor (BDNF), recombinant human (ligand)
binds: all assays above
